Counter-ions that a name gives are not always drawn. Further values from the same series stand in other lists. Values belong to the compound of their own block, whether it stands above or below them.
Key:
Type in all cases: physicochemical
[1] = Polymorph screening test, volatilization method (crystal form by XRPD)
From the text: (§1) The results are as follows:
A total of 15 slow volatilization tests were set up using different solvent systems. […] The resulting solid was collected and subjected to the XRPD test.
A total of 10 slow volatilization tests were set up using different solvent systems. […] The resulting solid was collected and subjected to the XRPD test.
A total of 3 slow volatilization tests were set up using different solvent systems. […] The resulting solid was collected and subjected to the XRPD test.

[2] = Polymorph screening test, poor solvent / anti-solvent method (crystal form by XRPD); details: stirred 5 days
From the text: as §1

[3] = Polymorph screening test, heating and cooling method (crystal form by XRPD); details: free base screening, dissolved at 50° C., cooled to 4° C.
From the text: as §1

[4] = Polymorph screening test, suspension method (crystal form by XRPD after stirring in solvent); details: suspension method, 40° C., 3 days
Protocol: (or 50° C.) for 3 days in the dark and centrifuged to remove the supernatant; the resulting precipitate was dried under vacuum (25° C., −0.1 MPa); and the resulting solid was collected and subjected to the XRPD test. The results are as follows:
(or 50° C./80° C.) for 3 days in the dark and centrifuged to remove the supernatant; and the resulting precipitate was dried under vacuum (25° C., −0.1 MPa).
(or 50° C.) for 3 days in the dark and centrifuged to remove the supernatant; and the resulting precipitate was dried under vacuum (25° C., −0.1 MPa).

[5] = slow volatilization at room temperature, DCM
[6] = slow volatilization at room temperature, DCM/MeOH(1:1, v/v)

Crystal form (XRPD) ([1]; free base screening, slow volatilization at room temperature from 1,4-Dioxane): Crystal form N | Crystal form (XRPD) ([1]; free base screening, slow volatilization at room temperature from ACN/DCM(10:3)): Crystal form D | Crystal form (XRPD) ([1]; free base screening, slow volatilization at room temperature from Acetone): Crystal form D | Crystal form (XRPD) ([1]; free base screening, slow volatilization at room temperature from DCM): No solid sample was obtained | Crystal form (XRPD) ([1]; free base screening, slow volatilization at room temperature from EtOAc): Crystal form D | Crystal form (XRPD) ([1]; free base screening, slow volatilization at room temperature from EtOH/DCM(5:1)): Crystal form L | Crystal form (XRPD) ([1]; free base screening, slow volatilization at room temperature from IPA/DCM(5:1)): Crystal form M | Crystal form (XRPD) ([1]; free base screening, slow volatilization at room temperature from MeOH/DCM(5:1)): Crystal form K | Crystal form (XRPD) ([1]; free base screening, slow volatilization at room temperature from THF): No solid sample was obtained | Crystal form (XRPD) ([1]; free base screening, slow volatilization at room temperature from iPrOAc/DCM(5:1)): Crystal form D | Crystal form (XRPD) ([2]; free base screening, good solvent DCM, poor solvent ACN): Crystal form D | Crystal form (XRPD) ([2]; free base screening, good solvent DCM, poor solvent Acetone): Crystal form E | Crystal form (XRPD) ([2]; free base screening, good solvent DCM, poor solvent EA): Crystal form D | Crystal form (XRPD) ([2]; free base screening, good solvent DCM, poor solvent MTBE): Crystal form D | Crystal form (XRPD) ([2]; free base screening, good solvent DCM, poor solvent MeOH): No solid sample was obtained | Crystal form (XRPD) ([2]; free base screening, good solvent DCM, poor solvent Water): No solid sample was obtained | Crystal form (XRPD) ([2]; free base screening, good solvent DCM, poor solvent n-Heptane): Crystal form D | Crystal form (XRPD) ([2]; free base screening, good solvent DMF, poor solvent MTBE): No solid sample was obtained | Crystal form (XRPD) ([2]; free base screening, good solvent DMF, poor solvent Water): Crystal form J | Crystal form (XRPD) ([2]; free base screening, good solvent DMF, poor solvent n-Heptane): No solid sample was obtained | Crystal form (XRPD) ([2]; free base screening, good solvent Dioxane, poor solvent MTBE): No solid sample was obtained | Crystal form (XRPD) ([2]; free base screening, good solvent Dioxane, poor solvent Water): Crystal form C | Crystal form (XRPD) ([2]; free base screening, good solvent Dioxane, poor solvent n-Heptane): Crystal form G | Crystal form (XRPD) ([2]; free base screening, good solvent NMP, poor solvent MTBE): No solid sample was obtained | Crystal form (XRPD) ([2]; free base screening, good solvent NMP, poor solvent Water): Crystal form C | Crystal form (XRPD) ([2]; free base screening, good solvent NMP, poor solvent n-Heptane): No solid sample was obtained | Crystal form (XRPD) ([2]; free base screening, good solvent THF, poor solvent ACN): Crystal form D | Crystal form (XRPD) ([2]; free base screening, good solvent THF, poor solvent Acetone): No solid sample was obtained | Crystal form (XRPD) ([2]; free base screening, good solvent THF, poor solvent EA): No solid sample was obtained | Crystal form (XRPD) ([2]; free base screening, good solvent THF, poor solvent MTBE): Crystal form D | Crystal form (XRPD) ([2]; free base screening, good solvent THF, poor solvent MeOH): Crystal form P | Crystal form (XRPD) ([2]; free base screening, good solvent THF, poor solvent Water): Crystal form R | Crystal form (XRPD) ([2]; free base screening, good solvent THF, poor solvent n-Heptane): Crystal form Q | Crystal form (XRPD) ([3]; 1,4-Dioxane): Crystal form G | Crystal form (XRPD) ([3]; ACN/DCM(1:1, v/v)): Crystal form D | Crystal form (XRPD) ([3]; Acetone): Crystal form E | Crystal form (XRPD) ([3]; DCM): No solid sample was obtained | Crystal form (XRPD) ([3]; EtOAc): Crystal form D | Crystal form (XRPD) ([3]; EtOH/DCM(2:1, v/v)): No solid sample was obtained | Crystal form (XRPD) ([3]; IPA/DCM(1:1, v/v)): No solid sample was obtained | Crystal form (XRPD) ([3]; MeOH/DCM(3:1, v/v)): Crystal form O | Crystal form (XRPD) ([3]; THF): Crystal form D | Crystal form (XRPD) ([3]; iPrOAc/DCM(1:1, v/v)): Crystal form D
Compound: Cc1cc(Nc2ncc(Cl)c(Nc3ccccc3S(=O)(=O)C(C)C)n2)c(OC(C)C)cc1C1=CCN(C2CCOCC2)CC1

Crystal form (XRPD) ([4]; 1,4-Dioxane): Crystal form D | Crystal form (XRPD) ([4]; Acetone/water (1:2)): Crystal form D | Crystal form (XRPD) ([4]; Acetone): Crystal form D | Crystal form (XRPD) ([4]; Acetonitrile/water (1:1)): Crystal form D | Crystal form (XRPD) ([4]; Acetonitrile): Crystal form D | Crystal form (XRPD) ([4]; Dichloromethane): Crystal form D | Crystal form (XRPD) ([4]; Ethanol): Crystal form D | Crystal form (XRPD) ([4]; Ethyl acetate): Crystal form D | Crystal form (XRPD) ([4]; Methanol/water (3:1)): Crystal form D | Crystal form (XRPD) ([4]; Methanol): Crystal form D | Crystal form (XRPD) ([4]; Tetrahydrofuran): Crystal form B | Crystal form (XRPD) ([4]; Water): Crystal form D | Crystal form (XRPD) ([4]; n-Heptane): Crystal form D | Crystal form (XRPD) [1, 5]: Crystal form D | Crystal form (XRPD) [1, 6]: Crystal form D | Crystal form (XRPD) ([1]; slow volatilization at room temperature, DCM/acetone (1:1, v/v)): Crystal forms A + D | Crystal form (XRPD) ([2]; anti-solvent method, good solvent DMSO, poor solvent Water): No solid sample was obtained | Crystal form (XRPD) ([2]; anti-solvent method, good solvent DMSO, poor solvent n-Heptane): Crystal form D
Compound: Cc1cc(Nc2ncc(Cl)c(Nc3ccccc3S(=O)(=O)C(C)C)n2)c(OC(C)C)cc1C1=CCN(C2CCOCC2)CC1 [one equivalent of succinate crystal form D]

Crystal form (XRPD) ([4]; 1,4-Dioxane): Crystal form B | Crystal form (XRPD) ([4]; Acetone/water (1:2)): No solid sample was obtained | Crystal form (XRPD) ([4]; Acetone): Crystal form B | Crystal form (XRPD) ([4]; Acetonitrile/water (1:1)): No solid sample was obtained | Crystal form (XRPD) ([4]; Acetonitrile): Crystal form C | Crystal form (XRPD) ([4]; Dichloromethane): No solid sample was obtained | Crystal form (XRPD) ([4]; Ethanol): Crystal form E | Crystal form (XRPD) ([4]; Ethyl acetate): Crystal form D | Crystal form (XRPD) ([4]; Methanol/water (3:1)): No solid sample was obtained | Crystal form (XRPD) ([4]; Methanol): Crystal form F | Crystal form (XRPD) ([4]; Tetrahydrofuran): Crystal form B | Crystal form (XRPD) ([4]; Water): No solid sample was obtained | Crystal form (XRPD) ([4]; n-Heptane): Crystal form B | Crystal form (XRPD) [1, 5]: No solid sample was obtained | Crystal form (XRPD) [1, 6]: Amorphous form | Crystal form (XRPD) ([1]; slow volatilization at room temperature, DCM/acetone (2:1, v/v)): Amorphous form | Crystal form (XRPD) ([2]; anti-solvent method, good solvent DCM, poor solvent Water): No solid sample was obtained | Crystal form (XRPD) ([2]; anti-solvent method, good solvent DCM, poor solvent n-Heptane): Crystal form C
Compound: Cc1cc(Nc2ncc(Cl)c(Nc3ccccc3S(=O)(=O)C(C)C)n2)c(OC(C)C)cc1C1=CCN(C2CCOCC2)CC1 [one equivalent of tartrate crystal form B]
